From paper PMC9172071, “Peach fruit PpNAC1 activates PpFAD3-1 transcription to provide ω-3 fatty acids for the synthesis of short-chain flavor volatiles”
For part of these data: No signal at the amounts used counts as a negative. At least one verdict rests on a figure or table, not on a statement of the authors. Protein sequences can lack the tags named with them. The exact form of at least one protein or probe is not confirmed.

Legend:
[1] = target: T1, GST-PpNAC1 (Prunus persica (peach)) (UniProt M5WG30); assay: EMSA; details: LightShift Chemiluminescent EMSA kit (Thermo Fisher); pH and temperature not stated (refers to previous study); recombinant protein; residues 1-363; protein details: GST (N-terminal, pGEX-4T-1); label: 3' biotin
T1 sequence (looked up): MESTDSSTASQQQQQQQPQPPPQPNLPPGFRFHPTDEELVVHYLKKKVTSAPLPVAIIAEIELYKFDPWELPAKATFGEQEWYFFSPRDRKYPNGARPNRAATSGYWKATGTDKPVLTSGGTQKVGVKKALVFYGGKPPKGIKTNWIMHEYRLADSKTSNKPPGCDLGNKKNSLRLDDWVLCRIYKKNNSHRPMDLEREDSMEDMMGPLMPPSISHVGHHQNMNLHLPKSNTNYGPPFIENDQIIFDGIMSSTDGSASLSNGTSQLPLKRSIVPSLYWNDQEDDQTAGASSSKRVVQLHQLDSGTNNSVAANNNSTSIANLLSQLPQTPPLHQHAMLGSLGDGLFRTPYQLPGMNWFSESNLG

[2] = target: T1, GST-PpNAC1 (Prunus persica (peach)); assay: competition EMSA; details: LightShift Chemiluminescent EMSA kit (Thermo Fisher); pH and temperature not stated (refers to previous study); recombinant protein; residues 1-363; protein details: GST (N-terminal, pGEX-4T-1)

Sequence | binding result [1] | binding result [2]
AACCCCAAACTTGCGTGCAAAGTAACTGGTG (double strand) [Probe1 (PpFAD3-1 promoter NACBS, biotin)] | binds | 
AACCCCAAACTTGCGTGCAAAGTAACTGGTG (double strand) [Probe1 cold (unlabeled competitor)] |  | binds
AGCTTTCTGGAGCAAGTAAATGGTTTTCAA (double strand) [Probe2 (PpFAD3-1 promoter NACBS, biotin)] | no binding | 
